{"sequences": {"note": "Protein sequences, listed by entry. Tags and fused reporters are not part of them.", "UniProt P63280": "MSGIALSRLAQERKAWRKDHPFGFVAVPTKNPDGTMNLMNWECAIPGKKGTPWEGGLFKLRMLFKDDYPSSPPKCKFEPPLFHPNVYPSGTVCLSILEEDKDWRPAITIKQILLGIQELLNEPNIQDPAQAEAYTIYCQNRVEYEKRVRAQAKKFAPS"}, "source": "paper PMC6643443", "key": {"[1]": {"molecular_target": "T1, Interferon regulatory factor 1 (IRF1), endogenous in ox-LDL loaded macrophages (mouse (endogenous in peritoneal macrophages)) (UniProt P15314)", "T1 sequence": "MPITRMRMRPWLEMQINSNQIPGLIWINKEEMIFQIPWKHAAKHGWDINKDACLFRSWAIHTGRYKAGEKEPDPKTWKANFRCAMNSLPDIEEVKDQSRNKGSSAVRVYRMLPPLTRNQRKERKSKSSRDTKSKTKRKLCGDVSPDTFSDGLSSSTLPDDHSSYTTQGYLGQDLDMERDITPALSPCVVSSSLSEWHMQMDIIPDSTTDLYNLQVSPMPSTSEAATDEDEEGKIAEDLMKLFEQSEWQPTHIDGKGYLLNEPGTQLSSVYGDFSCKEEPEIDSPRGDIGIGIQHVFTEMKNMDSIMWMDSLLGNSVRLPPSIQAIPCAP", "test": "affinity purification with mass spectrometry; immunoprecipitation of IRF1 from ox-LDL loaded macrophages, control group without LPS treatment; co-precipitated proteins separated by SDS-PAGE and identified by mass spectrometry"}, "[2]": {"molecular_target": "T1, Interferon regulatory factor 1 (IRF1), endogenous in ox-LDL loaded macrophages (mouse (endogenous in peritoneal macrophages))", "test": "affinity purification with mass spectrometry; immunoprecipitation of IRF1 from ox-LDL loaded macrophages challenged with LPS; co-precipitated proteins separated by SDS-PAGE and identified by mass spectrometry"}}, "note": "These are yes or no findings as the source states them, for the method shown. Binding seen in cells or lysates may run through a third protein. These calls come from enrichment with a bait or labelling near it, and not all partners need be listed. For some assays here: A no says only that the protein was not detected with the bait."}
{"substance": "Ubc9, SUMO E2-conjugating enzyme, endogenous in ox-LDL loaded macrophages (from UniProt P63280 1-158)", "values": [{"measurement": "binding", "setting": "[1]", "value": "binds"}, {"measurement": "binding", "setting": "[2]", "value": "no binding (only with LPS challenge)"}]}
